Among the data in article PMC3288074, “Structural and Functional Analysis of Validoxylamine A 7′-phosphate Synthase ValL Involved in Validamycin A Biosynthesis” (PLoS ONE, 2012) are binding values, retold here.

Results are given in words; binding and its absence hold for the method and conditions named. Some entries that bind do so weakly or less than the wild type.

This test deals with Validoxylamine A 7'-phosphate synthase ValL (Streptomyces hygroscopicus var. jinggangensis 5008) (UniProt H2K885). Briefly: crystal structure; hanging-drop vapour diffusion, 10 mg/mL protein, 30% PEG 4000, 200 mM MgCl2, 100 mM Tris-HCl pH 8.5, 20°C; two molecules in the asymmetric unit; both purified.

B1: Validoxylamine A 7'-phosphate synthase ValL (enzyme)
chain: TGSEIFLASKRAAITYDTDPATGEPRAWLAPGGTGNVVAEQAGVLNISWIASADSEDDRRASALNPDGVTMELHSGREILVRLIRHDPAVFRNVQNFMTANLMWAANNYGWDRWTQPSFGSDAREGWADFGRFTRDFADAILKSSAQSADPVYLVHDYQLVGVPALLREQRPDAPILLFVHIPWPSADYWRILPKEIRTGILHGMLPATTIGFFADRWCRNFLESVADLLPDARIDREAMTVEWRGHRTRLRTMPLGYSPLTLDGRNPQLPEGIEEWADGHRLVVHSGRTDPIKNAERAVRAFVLAARGGGLEKTRMLVRMNPNRLYVPANADYVHRVETAVAEANAELGSDTVRIDNDNDVNHTIACFRRADLLIFNSTVDGQNLSTFEAPLVNERDADVILSETCGAAEVLGEYCRSVNPFDLVEQAEAISAALAAGPRQRAEAAARRRDAARPWTLEAWVQAQLDGLAADHAARTATAERFDTAPAVSTRADL
notes: ValL, validoxylamine A 7'-phosphate synthase of the validamycin A gene cluster of Streptomyces hygroscopicus var. jinggangensis 5008; the encoded protein has 497 aa; gene valL cloned into pET28a between EcoRI and BamHI sites; Removal of the tag is not mentioned; The ValL/trehalose structure (3T7D) was obtained from selenomethionine-labelled ValL; the apo structure (3T5T) from native ValL; also …
For B1, the binding result was “binds”.
